# PubChem BioAssay AID504648 (National Center for Advancing Translational Sciences (NCATS), 2011)
# About 610 (0.16%) of roughly 390,000 compounds were called active. The inconclusive results got no clear call from the source; some entries with a clear call stand among them for comparison. Calls follow the shape of the dose curve; as a rule, active = well fitted inhibition curve with a large enough effect; inconclusive = small, poorly fitted or top-dose-only effect, or effect the other way, or another doubt; inactive = no such curve, though single readings can be large or run the other way. Potencies of inconclusive entries are doubtful fits and often do not repeat.
# Test: Nrf2 qHTS screen for inhibitors: counterscreen for cytotoxicity
# Conditions: A549 ARE-Fluc cells, CellTiter-Fluor viability, 18-24 h; activity change, negative = cytotoxicity: at 46 µM (top of the series)
# In short: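 A549 ARE_Fluc cells in 5% FBS OPTI-MEM were exposed to compounds in concentration-response for 18-24 h at 37 deg C. Viability was read by CellTiter-Fluor fluorescence (Ex 405/Em 525) after 30 min, before the luciferase read.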
# % is scaled to controls: 0 for no effect and ±100 for the full control effect; potency is read from the fitted curve at half-maximal effect.
Compound,Potency,"activity change, negative = cytotoxicity"
CN(C)Cc1c(O)ccc2c3c(c(=O)oc12)CCCCC3,"inconclusive: 23.1 µM [activator, single point]",
Cc1ccc(NS(=O)(=O)c2ccc(C(=O)NC3CCN(Cc4ccccc4)CC3)cc2)cc1,"inconclusive: 23.1 µM [falling, single point]",
Cn1cc(C(=O)C(=O)N2CCCc3ccccc32)c2ccccc21,"inconclusive: 16.4 µM [falling, partial curve, poor fit]",
O=C(Cn1c(=O)nc(-c2ccccc2)c2cc(Cl)ccc21)NCCc1ccccc1,,inactive: 0.889%
CC(=O)N1N=C(c2cccc(NS(=O)(=O)c3ccc(C)cc3)c2)CC1c1ccco1 (stereo unspecified),"inconclusive: 20.6 µM [falling, partial curve, poor fit]",
COc1ccc(C2C(C#N)=C(N)N(c3cccnc3)C3=C2C(=O)CC(C)(C)C3)cc1OC (stereo unspecified),,inactive: -10.4%
COc1cc(Cl)c(C)cc1NC(=O)c1cc2c(s1)-c1c(C)cccc1OC2,,inactive: -5.34%
CCN1CCN(c2oc(-c3ccc(OC)cc3)nc2C#N)CC1,,inactive: -0.347%
Cc1ccc(O)c(-c2n[nH]c3c2C(c2ccccc2F)N(Cc2ccco2)C3=O)c1 (stereo unspecified),"inconclusive: 32.6 µM [falling, partial curve, poor fit]",
CCc1nn(CC(=O)N2CCN(c3cccc(C)c3C)CC2)c(=O)c2cc3sccc3n12,,inactive: 0.5%
CCOC(=O)CNC(=O)c1ccc(SCC)cc1,"inconclusive: 29.1 µM [activator, partial curve, poor fit]",
CC(C)c1ccc(NC(=O)CCNS(=O)(=O)c2cccc3nsnc23)cc1,"inconclusive: 3.26 µM [activator, partial curve, poor fit]",
FC(F)(F)c1cc(CCN2CCNC[C@H]2Cc2cccc3ccccc23)cc(C(F)(F)F)c1,,inactive: -0.614%
O=C(COc1ccc(Cl)cc1)NCCc1csc(-c2cccc(F)c2)n1,"inconclusive: 9.2 µM [activator, partial curve, poor fit]",
Cn1c(N)c(C(=O)COC(=O)c2cccc(S(=O)(=O)N3CCCCC3)c2)c(=O)n(C)c1=O,"inconclusive: 7.31 µM [activator, partial curve, poor fit]",
O=C(O)c1ccc(N=Nc2c(O)ccc3ncccc23)cc1,"inconclusive: 18.4 µM [falling, partial curve]",
CCCN1C(C(=O)c2ccccc2)=C(OC(=O)c2ccc(C)cc2)c2ccccc2S1(=O)=O,"inconclusive: 20.6 µM [falling, single point]",
CCC1=C(OC(=O)N(CC)CC)N2C(=O)OC(=NCCc3c[nH]c4ccccc34)[C@]2(Cc2ccccc2)[C@H]2C1=CC[C@H]1C(=O)N(C)C(=O)[C@H]12,"inconclusive: 13 µM [falling, partial curve, poor fit]",
COc1ccc(C2=Nn3c(nnc3-c3ccc(OC)cc3)SC2)cc1,"inconclusive: 1.46 µM [falling, partial curve, poor fit]",
Cc1ccc(NC(=O)CSc2nc(-c3ccco3)cc(C(F)(F)F)n2)cc1C,"inconclusive: 5.8 µM [falling, partial curve]",
CCN(CC)CC(=O)Nc1sc2c(c1C(=O)c1ccccc1OC)CCC2,"inconclusive: 9.2 µM [falling, partial curve]",

# A different layout for part of the listing above.
Compound | Potency | activity change, negative = cytotoxicity
Cn1c(N)c(C(=O)COC(=O)c2cccc(S(=O)(=O)N3CCCCC3)c2)c(=O)n(C)c1=O | inconclusive: 7.31 µM [activator, partial curve, poor fit] | 
O=C(O)c1ccc(N=Nc2c(O)ccc3ncccc23)cc1 | inconclusive: 18.4 µM [falling, partial curve] | 
CCCN1C(C(=O)c2ccccc2)=C(OC(=O)c2ccc(C)cc2)c2ccccc2S1(=O)=O | inconclusive: 20.6 µM [falling, single point] | 

# (continued)

Compound,Potency,"activity change, negative = cytotoxicity"
C=CCOc1cccc(C(=O)N(C)C2CCCN(Cc3ccccc3F)C2)c1 (stereo unspecified),"inconclusive: 23.1 µM [falling, single point]",
CN1/C(=C\C(=O)Nc2ccc(Br)cc2)C(C)(C)c2ccccc21,"inconclusive: 18.4 µM [falling, single point]",
Cc1ccc2nc(-c3c[nH]c4ccccc34)c(Nc3ccc(F)cc3)n2c1,"inconclusive: 23.1 µM [falling, partial curve, poor fit]",
COc1ccc(C(=O)Nc2ccccc2N2CCOCC2)cc1[N+](=O)[O-],,inactive: 20.5%
COc1ccc(CC(=O)OCC(=O)Nc2ccc(Br)cc2)cc1,"inconclusive: 29.1 µM [activator, single point]",
O=C(Nc1ccc(F)cc1)Nc1csc2ccccc12,"inconclusive: 16.4 µM [falling, partial curve, poor fit]",
Cc1[nH]nc(-c2cccnc2)c1N=NN(C)C,"inconclusive: 25.9 µM [falling, single point]",
C=CCOc1cccc(CNCCCN2CCOCC2)c1,,inactive: 2.58%
CCOc1ccc(CCNC(=O)C2=C(C)C(=O)OC23CCCCC3)cc1OCC,,inactive: 2.31%
COc1cccc(CN(C)C(=O)c2cccc(S(=O)(=O)N3CCN(c4ccc(F)cc4)CC3)c2)c1OC,"inconclusive: 9.2 µM [falling, partial curve]",
COc1ccc(-n2nc(C(=O)NCC(=O)Nc3ccccn3)c3ccccc3c2=O)cc1Cl,"inconclusive: 32.6 µM [falling, partial curve, poor fit]",
COc1ccc(Cl)cc1S(=O)(=O)N1CCN(C(=O)c2cc(-c3ccc(Br)cc3)n[nH]2)CC1,"inconclusive: 20.6 µM [falling, partial curve, poor fit]",
Cc1ccc(Nc2cc(C)nc3c(C)cccc23)cc1,"inconclusive: 11.6 µM [falling, partial curve]",
CCOc1cc(C2C(C(=O)OC)=C(C)NC3=C2C(=O)c2ccccc23)cc(Br)c1OCC (stereo unspecified),"inconclusive: 7.31 µM [falling, partial curve, poor fit]",
CC(C)(C)c1ccc(C(=O)Nc2ccc(C(=O)NCc3cccnc3)cc2)cc1,"inconclusive: 29.1 µM [falling, single point]",
CC1CCN(Cc2nnnn2CCCC(=O)NCCc2cnn(C)c2)CC1,,inactive: -4.37%
O=C(/C=C/c1ccco1)Oc1cc(Br)cc(/C=N/NC(=O)c2ccccc2O)c1,"inconclusive: 23.1 µM [falling, partial curve, poor fit]",
Cc1cc(C)c(NC2=NCC(=O)N2C2CCCCC2)c(C)c1,,inactive: 1.58%
CC1(C)C(/C=C/C=C/C=C/C=C2\N(CCCCS(=O)(=O)O)c3ccc4ccccc4c3C2(C)C)=[N+](CCCCS(=O)(=O)[O-])c2ccc3ccccc3c21,"inconclusive: 20.6 µM [falling, single point]",
CC1CCCN(C(=O)c2ccc(Br)c(S(=O)(=O)N3CCOCC3)c2)C1 (stereo unspecified),,inactive: -10.4%
COc1ccc(S(=O)(=O)N(C)C[C@H]2Oc3ccc(NC(=O)Nc4ccc(C(F)(F)F)cc4)cc3C(=O)N([C@H](C)CO)C[C@@H]2C)cc1,"inconclusive: 29.1 µM [falling, partial curve, poor fit]",

Compound,Potency,"activity change, negative = cytotoxicity"
O=S(=O)(c1ccc(N2CCOCC2)nc1)N1CCOCC1,,inactive: -2.4% [at 1.84 µM]
COCCn1c(SCC(=O)Nc2nnc(C)s2)nnc1-c1c[nH]c2ccccc12,"inconclusive: 16.4 µM [activator, partial curve, poor fit]",
Cc1ccc2nc(NC(=O)C3CCN(S(=O)(=O)c4cc([N+](=O)[O-])ccc4Cl)CC3)sc2c1,"inconclusive: 20.6 µM [falling, partial curve, poor fit]",
O=C(c1cc2nc(-c3ccc(F)cc3)cc(C(F)(F)F)n2n1)N1CCCCC1c1cccnc1 (stereo unspecified),"inconclusive: 10.3 µM [falling, partial curve]",
CN(C)/C=N/c1ncc(C(=O)c2ccc3ccccc3c2)s1,"inconclusive: 14.6 µM [falling, single point]",
Cc1ccc(-c2noc(CCC(=O)NCC3CCN(Cc4cccc(C)c4)CC3)n2)cc1,"inconclusive: 14.6 µM [falling, partial curve, poor fit]",
CCOc1cc(CNc2ccc3c(c2)OCCO3)cc(Br)c1OC,"inconclusive: 2.59 µM [falling, partial curve, poor fit]",
CCn1c(CSCc2ccc(C)cc2)nnc1SCC(=O)N1CCN(c2ccccc2)CC1,"inconclusive: 20.6 µM [falling, partial curve, poor fit]",
Cc1nn(C(C)(C)C)c(OC(=O)c2c(F)cccc2F)c1Sc1ccccc1,"inconclusive: 18.4 µM [falling, partial curve, poor fit]",
CN1C(=O)c2ccccc2Sc2ccc(NC(=O)c3ccc(C#N)cc3)cc21,"inconclusive: 13 µM [falling, partial curve, poor fit]",
CCOC(=O)C1=C(N)n2c(s/c(=C\c3ccco3)c2=O)=C(C(=O)OC(C)C)C1c1ccco1 (stereo unspecified),"inconclusive: 18.4 µM [falling, partial curve, poor fit]",
CC(C)(C)c1ccc(C(=O)CC(=O)c2cc(Cl)ccc2O)cc1,"inconclusive: 29.1 µM [falling, single point]",
Cc1ccc(C(C)C)cc1NC(=O)Nc1ccc([N+](=O)[O-])cc1,"inconclusive: 32.6 µM [falling, single point]",
CN(C)c1ccc(NC(=O)c2ccncc2)c2ccccc12,"inconclusive: 20.6 µM [activator, partial curve, poor fit]",
Cc1cccc(N2CCN(C(=O)C3CCN(C(=O)c4cc5sccc5n4C)CC3)CC2C)c1 (stereo unspecified),"inconclusive: 14.6 µM [falling, partial curve, poor fit]",
COc1cc(SC#N)ccc1N=Cc1c(C)[nH]n(-c2ccc(C)c(C)c2)c1=O,,inactive: -17.3%
CCOc1ccc(CCNC(=O)Cn2c(-c3cccs3)cc3ccccc32)cc1,,inactive: 1.18%
CCC(C)S(=O)(=O)c1oc(-c2cccs2)nc1S(=O)(=O)c1ccccc1 (stereo unspecified),"inconclusive: 29.1 µM [falling, single point]",
COc1cc(-c2nnc(NC(=O)CCS(=O)(=O)c3ccc(F)cc3)o2)cc(OC)c1OC,,inactive: -6.56%
